The text below walks through data of paper PMC1839166, “Type III Effector Activation via Nucleotide Binding, Phosphorylation, and Host Target Interaction” (PLoS Pathogens, 2007).

Protein sequences, listed by entry. Tags and fused reporters are not part of them.
UniProt Q8P8X2: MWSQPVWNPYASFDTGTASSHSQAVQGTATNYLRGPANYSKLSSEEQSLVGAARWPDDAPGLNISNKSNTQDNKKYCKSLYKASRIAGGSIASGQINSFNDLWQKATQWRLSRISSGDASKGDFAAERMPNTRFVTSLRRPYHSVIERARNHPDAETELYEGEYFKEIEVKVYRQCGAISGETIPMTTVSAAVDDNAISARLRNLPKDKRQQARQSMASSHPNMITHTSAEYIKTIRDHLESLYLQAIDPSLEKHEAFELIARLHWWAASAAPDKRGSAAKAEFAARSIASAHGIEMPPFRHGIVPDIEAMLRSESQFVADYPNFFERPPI

These are yes or no findings as the source states them, for the method shown. Some binding calls cover weakened binding; strength is not graded here.

The target in this experiment is Xanthomonas campestris campestris avirulence protein C (AvrXccC), in yeast two-hybrid (Xanthomonas campestris pv. campestris) (UniProt Q8P8X2). Nature of the experiment: two-hybrid; yeast two-hybrid, unpublished data.

B1: B42AD-RIN4 (protein, UniProt Q8GYN5 1-211)
chain: MARSNVPKFGNWEAEENVPYTAYFDKARKTRAPGSKIMNPNDPEYNSDSQSQAPPHPPSSRTKPEQVDTVRRSREHMRSREESELKQFGDAGGSSNEAANKRQGRASQNNSYDNKSPLHKNSYDGTGKSRPKPTNLRADESPEKVTVVPKFGDWDENNPSSADGYTHIFNKVREERSSGANVSGSSRTPTHQSSRNPNNTSSCCCFGFGGK
As for B1, the binding result is on record as “binds”.
